In patent US10654837B2, “Sulphamoylaryl derivatives and use thereof as medicaments for the treatment of liver fibrosis” (Janssen Pharmaceutica NV, priority 2017, dated 2020):
The structures given here were assigned with low confidence; some may be wrong.

Sequences of proteins named here, by UniProt entry; tags and fusion partners are left off.
UniProt P41595, whole entry: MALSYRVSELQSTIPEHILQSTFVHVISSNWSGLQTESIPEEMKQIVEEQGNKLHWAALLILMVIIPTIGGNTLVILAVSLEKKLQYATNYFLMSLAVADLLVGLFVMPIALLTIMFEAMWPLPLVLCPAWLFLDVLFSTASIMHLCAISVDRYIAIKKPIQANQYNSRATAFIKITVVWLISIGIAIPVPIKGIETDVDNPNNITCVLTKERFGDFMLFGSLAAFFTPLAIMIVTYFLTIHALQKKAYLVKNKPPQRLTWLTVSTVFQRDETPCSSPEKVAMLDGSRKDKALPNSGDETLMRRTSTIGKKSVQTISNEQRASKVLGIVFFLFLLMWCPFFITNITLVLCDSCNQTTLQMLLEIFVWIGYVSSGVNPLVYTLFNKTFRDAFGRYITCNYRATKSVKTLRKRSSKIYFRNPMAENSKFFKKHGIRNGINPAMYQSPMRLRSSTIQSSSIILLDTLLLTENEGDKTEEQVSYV

Biological target: 5HTR2B (Homo sapiens, UniProt P41595)
Test: 5HTR2B antagonist activity, calcium mobilization assay in human Maverick/293 cells (serotonin as agonist)
Assay type: cell-based
Settings: read-out: Ca assay IC50, intracellular calcium, emission 525 nm

COc1ccc(S(=O)(=O)N[C@H](C)C(N)=O)cc1C(=O)Nc1ccccc1Cl
IC50: 0.2 nM
